Experimental data: paper PMC3105097
Results are given in words; binding and its absence hold for the method and conditions named. In cells and extracts the contact can be indirect. Some binding calls cover weakened binding; strength is not graded here. For some of these results: Sequences can lack the tags named with a protein. Values belong to the binder of their own block, whether it stands above or below them.

Columns and labels:
[1] = molecular target: T1, FWS-GFP (GFP-tagged Four Way Stop) (Drosophila) (UniProt Q9VJD3); experiment: co-IP; anti-GFP (rabbit) immunoprecipitation from ovarian extracts of YFP-dDcp1 or FWS-GFP flies in DXB-150 buffer, 4°C; six washes; western blot of the bound proteins
T1 sequence: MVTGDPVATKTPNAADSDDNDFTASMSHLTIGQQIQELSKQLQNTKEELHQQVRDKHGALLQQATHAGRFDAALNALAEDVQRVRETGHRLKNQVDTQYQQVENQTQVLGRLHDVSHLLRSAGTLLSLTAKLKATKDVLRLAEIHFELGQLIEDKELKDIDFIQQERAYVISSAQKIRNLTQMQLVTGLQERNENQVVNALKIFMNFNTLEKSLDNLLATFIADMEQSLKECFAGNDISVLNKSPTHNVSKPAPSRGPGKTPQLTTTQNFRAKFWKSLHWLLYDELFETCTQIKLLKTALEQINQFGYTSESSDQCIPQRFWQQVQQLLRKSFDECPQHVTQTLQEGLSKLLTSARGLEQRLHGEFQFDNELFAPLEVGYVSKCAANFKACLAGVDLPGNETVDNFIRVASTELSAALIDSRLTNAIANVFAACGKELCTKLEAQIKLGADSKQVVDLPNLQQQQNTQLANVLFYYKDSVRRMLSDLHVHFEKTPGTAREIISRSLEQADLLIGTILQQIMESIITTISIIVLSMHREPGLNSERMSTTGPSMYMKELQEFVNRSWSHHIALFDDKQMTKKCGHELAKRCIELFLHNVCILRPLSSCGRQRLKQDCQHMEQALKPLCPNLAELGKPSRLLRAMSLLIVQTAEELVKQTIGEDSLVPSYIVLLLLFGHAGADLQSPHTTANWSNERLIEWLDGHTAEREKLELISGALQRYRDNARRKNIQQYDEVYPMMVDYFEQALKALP

[2] = molecular target: T2, Drosophila Ge-1 (dGe-1) (Drosophila melanogaster (endogenous in ovaries)) (UniProt Q9VKK1); experiment: co-IP; endogenous dGe-1 immunoprecipitated from wt ovarian extract with rabbit anti-dGe-1 coupled to protein A sepharose, antibody pre-incubated or not with dGe-1 blocking peptide; DXB-150 buffer, 2 h at 4°C; western blot
T2 sequence: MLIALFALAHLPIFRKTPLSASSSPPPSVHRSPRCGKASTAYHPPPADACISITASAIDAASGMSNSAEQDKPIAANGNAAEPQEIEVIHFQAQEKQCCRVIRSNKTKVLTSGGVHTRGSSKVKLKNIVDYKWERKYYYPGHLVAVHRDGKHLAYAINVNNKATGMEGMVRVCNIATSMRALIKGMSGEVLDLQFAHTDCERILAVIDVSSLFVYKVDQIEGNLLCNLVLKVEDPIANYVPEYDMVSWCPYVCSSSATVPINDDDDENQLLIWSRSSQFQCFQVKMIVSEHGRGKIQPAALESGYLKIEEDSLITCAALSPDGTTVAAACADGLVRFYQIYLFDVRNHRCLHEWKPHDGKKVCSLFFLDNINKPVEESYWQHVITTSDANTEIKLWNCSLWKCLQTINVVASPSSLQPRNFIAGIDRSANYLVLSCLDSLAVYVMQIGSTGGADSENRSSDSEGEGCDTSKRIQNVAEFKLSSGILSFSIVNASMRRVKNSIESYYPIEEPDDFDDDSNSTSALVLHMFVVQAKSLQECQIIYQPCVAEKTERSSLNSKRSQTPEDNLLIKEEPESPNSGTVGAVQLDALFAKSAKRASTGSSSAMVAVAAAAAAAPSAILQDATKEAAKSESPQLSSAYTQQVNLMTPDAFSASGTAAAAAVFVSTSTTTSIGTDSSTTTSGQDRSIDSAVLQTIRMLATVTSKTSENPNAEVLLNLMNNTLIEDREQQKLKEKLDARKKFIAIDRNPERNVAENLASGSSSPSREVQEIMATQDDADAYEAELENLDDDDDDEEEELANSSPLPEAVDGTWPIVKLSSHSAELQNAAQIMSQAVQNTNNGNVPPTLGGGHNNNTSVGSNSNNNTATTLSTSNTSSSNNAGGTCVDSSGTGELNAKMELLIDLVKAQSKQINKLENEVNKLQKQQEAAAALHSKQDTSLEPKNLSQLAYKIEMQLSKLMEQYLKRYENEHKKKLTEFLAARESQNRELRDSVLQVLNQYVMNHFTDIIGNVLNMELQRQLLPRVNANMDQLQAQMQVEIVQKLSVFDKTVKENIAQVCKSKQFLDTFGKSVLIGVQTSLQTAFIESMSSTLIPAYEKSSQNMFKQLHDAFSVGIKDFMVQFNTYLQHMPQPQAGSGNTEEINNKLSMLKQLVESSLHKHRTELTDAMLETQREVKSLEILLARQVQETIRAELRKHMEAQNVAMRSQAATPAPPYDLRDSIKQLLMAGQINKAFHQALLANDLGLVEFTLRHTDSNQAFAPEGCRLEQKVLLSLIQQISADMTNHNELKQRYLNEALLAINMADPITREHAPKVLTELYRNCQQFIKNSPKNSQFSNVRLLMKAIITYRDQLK

binding [1]: no binding
binding [2]: binds
B1: Exu (protein, UniProt P28750 1-532)
chain: MVADNIDAGVAIAVADQSSSPVGDKVELPAGNYILVGVDIDTTGRRLMDEIVQLAAYTPTDHFEQYIMPYMNLNPAARQRHQVRVISIGFYRMLKSMQTYKIIKSKSEIAALKDFLNWLEQLKTKAGPSSDGIVLIYHEERKFIPYMILESLKKYGLLERFTASVKSFANSINLAKASIGDANIKNYSLRKLSKILSTTKEEDAACSASTSGSGSGLGSGSSMVSDSVSISPRDSTVTNGDDKQSSKNAVQGKRELFDGNASVRAKLAFDVALQLSNSDGKPEPKSSEALENMFNAIRPFAKLVVSDVLELDIQIENLERQNSFRPVFLNYFKTTLYHRVRAVKFRIVLAENGFDLNTLSAIWAEKNIEGLDIALQSIGRLKSKDKAELLELLDSYFDPKKTTVKPVVKGNSNNNNNYRRRNRRGGRQSVKDARPSSSPSASTEFGAGGDKSRSVSSLPDSTTKTPSPNKPRMHRKRNSRQSLGATPNGLKVAAEISSSGVSELNNSAPPAVTISPVVAQPSPTPVAITASN

binding [1]: no binding
binding [2]: binds
B2: Me31B (protein, UniProt P23128 1-459)
chain: MMTEKLNSGHTNLTSKGIINDLQIAGNTSDDMGWKSKLKLPPKDNRFKTTDVTDTRGNEFEEFCLKRELLMGIFEKGWERPSPIQEAAIPIALSGKDVLARAKNGTGKTGAYCIPVLEQIDPTKDYIQALVMVPTRELALQTSQICIELAKHLDIRVMVTTGGTILKDDILRIYQKVQLIIATPGRILDLMDKKVADMSHCRILVLDEADKLLSLDFQGMLDHVILKLPKDPQILLFSATFPLTVKNFMEKHLREPYEINLMEELTLKGVTQYYAFVQERQKVHCLNTLFSKLQINQSIIFCNSTQRVELLAKKITELGYCCYYIHAKMAQAHRNRVFHDFRQGLCRNLVCSDLFTRGIDVQAVNVVINFDFPRMAETYLHRIGRSGRFGHLGIAINLITYEDRFDLHRIEKELGTEIKPIPKVIDPALYVANVGASVGDTCNNSDLNNSANEEGNVSK
